For the assay, the target named is 2.7A4OPT. As to the kind of experiment: HTRF competition assay, told in the text. (TR-FRET usually uses a lanthanide donor and a delayed reading to cut background.)

The chains behind the UniProt entries cited, without tags or fusion partners. Where a name states a change or a piece, a line headed by the entry shows the natural chain unless it says otherwise. A line that says so, or that is headed by a name, gives the form on record, which may keep a tag or linker.
B7H1_M115D (Q9NZQ7, form named): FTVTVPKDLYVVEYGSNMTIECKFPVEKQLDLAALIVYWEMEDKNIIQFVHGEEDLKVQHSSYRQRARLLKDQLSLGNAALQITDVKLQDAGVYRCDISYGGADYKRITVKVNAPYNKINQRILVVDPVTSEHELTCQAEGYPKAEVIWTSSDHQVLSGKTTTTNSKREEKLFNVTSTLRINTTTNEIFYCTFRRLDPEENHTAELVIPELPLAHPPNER

These are yes or no findings as the source states them, for the method shown. Some entries that bind do so weakly or less than the wild type.

Take “B7H1_M115D (from UniProt Q9NZQ7 19-238) (ligand)”: the binding entry was “binds”.

Source of the values: patent publication US20130034559A1.
